Measured values: patent US8168638B2, “Pyrazinecarboxamide derivatives and plant disease controlling agents containing the same” (Nihon Nohyaku Co., Ltd., priority 2005, dated 2012)
Some results were stated once for a whole list of compounds, not compound by compound. At least one compound was matched to its structure with a doubt left.

Assays:
Assay type in all cases: in vivo
Venturia inaequalis = assay: Test on the controlling effect against apple tree scab; settings: apple seedling (Ohrin), foliar application, application rate 50 mL, 14 days after inoculation
Puccinia recondita = assay: Test on the controlling effect against brown leaf rust of wheat plant; settings: wheat plant (Hokushin), foliar application, application rate 50 mL, 7 days after inoculation
Botrytics cinerea = assay: Test on the controlling effect against gray mold of cucumber plant; settings: cucumber plant (Suyou), foliar application, active-ingredient concentration 200 ppm, application rate 50 mL, 7 days after inoculation
[1] = system: Blumeria graminis f. sp. hordei; assay: Test on the controlling effect against powdery mildew of barley plant; settings: barley plant (Kantoh No. 6), foliar application, application rate 50 mL, 7 days after inoculation
[2] = active-ingredient concentration 10 ppm
[3] = active-ingredient concentration 50 ppm
[4] = active-ingredient concentration 200 ppm

| SMILES | controlling effect assessed according to the criteria of judgment (protective value) (Venturia inaequalis; [2]) | controlling effect assessed according to the criteria of judgment (protective value) (Venturia inaequalis; [3]) | controlling effect assessed according to the criteria of judgment (Puccinia recondita; [3]) | controlling effect assessed according to the criteria of judgment (Puccinia recondita; [4]) | controlling effect assessed according to the criteria of judgment (protective value) (Botrytics cinerea) | controlling effect assessed according to the criteria of judgment [1, 3] | controlling effect assessed according to the criteria of judgment [1, 4] |
| --- | --- | --- | --- | --- | --- | --- | --- |
| O=C(Nc1ccccc1-c1ccc(OC(F)F)c(F)c1)c1nccnc1C(F)(F)F [3-70] | 10 (100% in protective value) | 10 (100% in protective value) | 10 (100% in protective value) | 10 (100% in protective value) | 10 (100% in protective value) | 10 (100% in protective value) | 10 (100% in protective value) |
| O=C(Nc1ccccc1-c1ccc(OC(F)F)c(Cl)c1)c1nccnc1C(F)(F)F [3-71] | 10 (100% in protective value) | 10 (100% in protective value) | 10 (100% in protective value) | 10 (100% in protective value) | 10 (100% in protective value) | 10 (100% in protective value) | 10 (100% in protective value) |
| Cc1cc(-c2ccccc2NC(=O)c2nccnc2C(F)(F)F)cc(C)c1Cl [3-74] | 10 (100% in protective value) | 10 (100% in protective value) | 10 (100% in protective value) | 10 (100% in protective value) | 10 (100% in protective value) | 10 (100% in protective value) | 10 (100% in protective value) |
| Cc1cc(-c2ccccc2NC(=O)c2nccnc2C(F)(F)F)cc(C)c1F [3-75] | 10 (100% in protective value) | 10 (100% in protective value) | 10 (100% in protective value) | 10 (100% in protective value) | 10 (100% in protective value) | 10 (100% in protective value) | 10 (100% in protective value) |
| O=C(Nc1ccccc1-c1cc(F)c(Cl)c(F)c1)c1nccnc1C(F)(F)F [3-76] | 10 (100% in protective value) | 10 (100% in protective value) | 10 (100% in protective value) | 10 (100% in protective value) | 10 (100% in protective value) | 10 (100% in protective value) | 10 (100% in protective value) |
| O=C(Nc1ccccc1-c1cc(F)c(F)c(F)c1)c1nccnc1C(F)(F)F [3-77] | 10 (100% in protective value) | 10 (100% in protective value) | 10 (100% in protective value) | 10 (100% in protective value) | 10 (100% in protective value) | 10 (100% in protective value) | 10 (100% in protective value) |
| O=C(Nc1ccccc1-c1ccc(Cl)cc1)c1nccnc1C(F)(F)F [Compound No. 3-6, N-(4′-chlorobiphenyl-2-yl)-3-trifluoromethyl-pyrazine-2-carboxamide] | 10 (100% in protective value) | 10 (100% in protective value) | 10 (100% in protective value) | 10 (100% in protective value) | 10 (100% in protective value) | 10 (100% in protective value) | 10 (100% in protective value) |
| Cc1nccnc1C(=O)Nc1cccc2c1CC(C)C2 (stereo not shown) [Control Compound A, 3-Methyl-N-(2-methylindan-4-yl)-pyrazine-2-carboxamide, reference compound] | – | 0 (Less than 9% in protective value) | 0 (Less than 9% in protective value) | 6 (60 to 69% in protective value) | 0 (Less than 9% in protective value) | – | 0 (Less than 9% in protective value) |
| COC(c1ccc(NC(=O)c2nccnc2C(F)(F)F)cc1CC(C)C)(C(F)(F)F)C(F)(F)F [Control Compound B, N-{3-Isobutyl-4-[1-methoxy-2,2,2-trifluoro-1-(trifluoromethyl)ethyl]phenyl}-3-trifluoro-methylpyrazine-2-carboxamide, reference compound] | – | 0 (Less than 9% in protective value) | – | 0 (Less than 9% in protective value) | 0 (Less than 9% in protective value) | – | 0 (Less than 9% in protective value) |
